Measured values from publication PMC10985091.
No constants are given. Whether binding was seen depends on the method and setting. Binding seen in cells or lysates may run through a third protein. Some entries that bind do so weakly or less than the wild type.

Sequences of proteins named here, by UniProt entry; tags and fusion partners are left off. A change or cut given only in a name is not applied to a line headed by its entry. Residues count along the entry.
UniProt Q13309: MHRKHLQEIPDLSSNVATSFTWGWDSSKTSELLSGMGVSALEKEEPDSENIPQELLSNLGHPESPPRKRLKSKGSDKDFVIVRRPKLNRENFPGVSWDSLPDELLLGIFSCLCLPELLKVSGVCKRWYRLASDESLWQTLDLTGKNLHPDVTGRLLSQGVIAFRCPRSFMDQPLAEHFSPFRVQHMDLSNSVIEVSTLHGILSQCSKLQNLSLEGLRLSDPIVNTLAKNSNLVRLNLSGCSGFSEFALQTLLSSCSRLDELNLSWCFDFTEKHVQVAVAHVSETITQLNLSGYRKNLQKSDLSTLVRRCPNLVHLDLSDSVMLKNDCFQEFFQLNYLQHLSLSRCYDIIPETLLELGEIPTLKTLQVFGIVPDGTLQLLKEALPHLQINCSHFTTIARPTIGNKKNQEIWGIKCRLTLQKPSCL
Skp2^Δ45 (N-terminal aa1-45 deletion mutant): residues 46-424 of Q13309
UniProt P18754: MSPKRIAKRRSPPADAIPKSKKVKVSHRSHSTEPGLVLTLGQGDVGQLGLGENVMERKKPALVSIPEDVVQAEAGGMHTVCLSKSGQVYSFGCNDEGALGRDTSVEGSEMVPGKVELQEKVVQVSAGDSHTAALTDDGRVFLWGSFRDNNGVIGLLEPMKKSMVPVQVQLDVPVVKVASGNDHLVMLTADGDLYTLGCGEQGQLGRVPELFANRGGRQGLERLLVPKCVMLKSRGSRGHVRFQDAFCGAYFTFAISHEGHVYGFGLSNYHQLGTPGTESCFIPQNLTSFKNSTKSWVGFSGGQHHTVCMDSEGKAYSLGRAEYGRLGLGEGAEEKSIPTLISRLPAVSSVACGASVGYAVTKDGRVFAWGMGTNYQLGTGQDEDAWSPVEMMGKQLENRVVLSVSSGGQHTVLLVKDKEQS

How the values were obtained:
[1] = molecular target: Myc-Skp2 (Skp2^WT) (UniProt Q13309); assay: co-IP; exogenous co-immunoprecipitation from HEK 293T cells transfected 48 h; IP buffer 250 mM NaCl, 50 mM Tris, 0.5 mM EDTA, 0.5% NP-40; indicated antibody and protein A-agarose overnight at 4 °C; RCC1 detected by anti-flag (M2), Skp2 by anti-myc
[2] = molecular target: Skp2^Δ45 (N-terminal aa1-45 deletion mutant) (UniProt Q13309); assay: as above
[3] = molecular target: S-phase kinase-associated protein-2 (Skp2), endogenous (human (endogenous in SW872)) (UniProt Q13309); assay: co-IP; endogenous co-immunoprecipitation from total protein of SW872 cells (shRCC1 or shScr); IP buffer 250 mM NaCl, 50 mM Tris, 0.5 mM EDTA, 0.5% NP-40; indicated antibody and protein A-agarose overnight at 4 °C; western blot

Q: For Flag-RCC1 (from UniProt P18754 1-421), which binding [1] is on record?
A: binds

Q: And the binding [2]?
A: no binding

Q: With “Regulator of chromosome condensation 1 (RCC1), endogenous (from UniProt P18754 1-421)” as the substance, how does the binding [3] read?
A: binds
